Reference: PubChem BioAssay (Tox21)
Values joined by “and” are separate entries in the source; they are usually repeats but may differ in a detail not shown here. Equal entries are not always repeated. For some assays here: The hits were mostly taken out for another list; the other results follow. Inconclusive results are not listed. The list shows a part of the results, in another mix than the full data. Active and inactive are the calls of the source. Unless noted, the call rests on the fitted dose curve; in most records, active means well fitted curve in the direction sought with a large enough effect in the repeat runs; inconclusive means weak or mixed curves; inactive means no such curve, though single readings can be large; an effect the other way counts as inactive or inconclusive.

Chains of the proteins cited; added tags and fusions are not shown.
UniProt P03372, whole entry, looked up: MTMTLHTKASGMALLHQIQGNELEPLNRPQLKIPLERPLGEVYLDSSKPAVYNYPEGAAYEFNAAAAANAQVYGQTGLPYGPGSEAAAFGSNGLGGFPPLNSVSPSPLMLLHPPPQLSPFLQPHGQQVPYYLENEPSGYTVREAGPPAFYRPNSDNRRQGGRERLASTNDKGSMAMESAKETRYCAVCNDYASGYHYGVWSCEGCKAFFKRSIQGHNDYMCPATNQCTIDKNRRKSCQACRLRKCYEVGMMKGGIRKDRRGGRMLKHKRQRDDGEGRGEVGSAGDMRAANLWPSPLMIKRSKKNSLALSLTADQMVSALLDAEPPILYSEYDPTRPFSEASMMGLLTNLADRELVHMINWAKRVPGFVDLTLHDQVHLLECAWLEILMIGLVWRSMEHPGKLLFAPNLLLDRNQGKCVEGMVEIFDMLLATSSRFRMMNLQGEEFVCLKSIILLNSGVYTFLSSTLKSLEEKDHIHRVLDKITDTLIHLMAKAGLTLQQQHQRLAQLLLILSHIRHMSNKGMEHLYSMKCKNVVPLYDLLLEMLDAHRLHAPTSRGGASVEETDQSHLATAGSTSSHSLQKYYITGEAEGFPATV

Legend:
[1] = qHTS assay to identify small molecule agonists of the hypoxia (HIF-1) signaling pathway - cell viability counter screen (AID 1224844; calls by dose curve; further: nearly all actives have a fitted effect of over 50% in size); settings: HRE-bla ME-180 viability, CellTiter-Glo luminescence, 17 h; at 76.8 µM (top of the series)
Method in brief: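 CellTiter-Glo luminescence read-out, 30 min RT, taken in the same wells as the beta-lactamase HRE reporter assay; HRE-bla ME-180 cells, 0.5% dialyzed FBS, 17 hr compound treatment at 37C, 5% CO2.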

[2] = qHTS RealTime-Glo MT Cell Viability Assay in HepG2 cells - 24 hour (AID 1224867); settings: RealTime-Glo luminescence; at 76.8 µM (top of the series); further: nearly all actives have a fitted effect of over 50% in size
Method in brief: (§1)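 HepG2 suspension premixed with RealTime-Glo reagents is plated at 600 cells per well and left 5 h at 37 C/5% CO2. Compounds in DMSO then go in, and bioluminescence reflecting viable cell number is recorded over 40 h.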

[3] = qHTS RealTime-Glo MT Cell Viability Assay in HEK293 cells - 32 hour (AID 1224868); settings: RealTime-Glo luminescence; at 76.8 µM (top of the series); further: top concentration of the series differs between compounds; nearly all actives have a fitted effect of over 50% in size
Method in brief: (§2)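 Reads taken at 0, 8, 16, 24, 32 and 40 h from the same wells. HEK293 cells (600/well) carried RealTime-Glo reagents from seeding, with compound added after a 5 h settle at 37 C.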

[4] = qHTS RealTime-Glo MT Cell Viability Assay in HepG2 cells - 40 hour (AID 1224870); settings: RealTime-Glo luminescence; at 76.8 µM (top of the series); further: nearly all actives have a fitted effect of over 50% in size
Method in brief: (§3)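 HepG2 cells (600/well) mixed with RealTime-Glo MT reagent, settled 5 h at 37 C/5% CO2 before compound addition. Nonlytic NanoLuc luminescence from viable-cell prosubstrate reduction read repeatedly during 40 h treatment at 37 C.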

[5] = qHTS RealTime-Glo MT Cell Viability Assay in HEK293 cells - 16 hour (AID 1224872); settings: RealTime-Glo luminescence; at 76.8 µM (top of the series)
Method in brief: as §2

[6] = qHTS RealTime-Glo MT Cell Viability Assay in HepG2 cells - 8 hour (AID 1224873); settings: RealTime-Glo luminescence; at 76.8 µM (top of the series); further: nearly all actives have a fitted effect of over 55% in size
Method in brief: as §3

[7] = qHTS RealTime-Glo MT Cell Viability Assay in HepG2 cells - 32 hour (AID 1224877); settings: RealTime-Glo luminescence; at 76.8 µM (top of the series); further: nearly all actives have a fitted effect of over 55% in size
Method in brief: as §1

[8] = qHTS RealTime-Glo MT Cell Viability Assay in HepG2 cells - 16 hour (AID 1224885); settings: RealTime-Glo luminescence; at 76.8 µM (top of the series); further: nearly all actives have a fitted effect of over 50% in size
Method in brief: as §1

[9] = qHTS RealTime-Glo MT Cell Viability Assay in HEK293 cells - 24 hour (AID 1224886); settings: RealTime-Glo luminescence; at 76.8 µM (top of the series)
Method in brief: as §2

[10] = qHTS RealTime-Glo MT Cell Viability Assay in HEK293 cells - 8 hour (AID 1224887); settings: RealTime-Glo luminescence; at 76.8 µM (top of the series)
Method in brief: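 Luminescence readout at each listed time point; HEK293, 600 cells/well, RealTime-Glo MT reagent added with cells; compounds pinned (23 nL in DMSO) after 5 h at 37 C; continuous culture at 37 C.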

[11] = qHTS RealTime-Glo MT Cell Viability Assay in HepG2 cells - 0 hour (AID 1224889); settings: RealTime-Glo luminescence; at 76.8 µM (top of the series); further: nearly all actives have a fitted effect of over 50% in size
Method in brief: as §1

[12] = qHTS assay to identify small molecule antagonists of the estrogen receptor alpha (ER-alpha) signaling pathway using the BG1 cell line in the presence of 0.1 nM 17-beta-estradiol - cell viability counter screen (AID 1259241); settings: VM7Luc4E2 (BG1) viability, CellTiter-Fluor protease, 22 h, 0.1 nM estradiol agonist added; at 92.4 µM (top of the series); further: nearly all actives have a fitted effect of over 40% in size
Method in brief: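 In this screen, hormone-deprived VM7Luc4E2 cells were seeded at 4,000 per well, dosed with compound and 0.1 nM estradiol final, and incubated 22 hr at 37C and 5% CO2; fluorogenic live-cell protease signal reported viability.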

[13] = qHTS assay to identify small molecule antagonists of the androgen receptor (AR) signaling pathway using the MDA cell line in the presence of 0.5 nM R1881 - cell viability counter screen (AID 1259242); settings: MDA-kb2 viability, CellTiter-Fluor protease fluorescence, 16 h; at 92.4 µM (top of the series); further: nearly all actives have a fitted effect of over 45% in size
Method in brief: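 Live-cell protease fluorescence, CellTiter-Fluor, 30 min at 37C. Cells: MDA-kb2, 3,000/well, preincubated 5 hr. Compounds plus 0.5 nM R1881 final, 16 hr, 37C, 0% CO2.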

[14] = qHTS assay to identify small molecule HDAC inhibitors - cell viability counter screen (AID 1259365); settings: HCT-116 viability, CellTiter-Glo ATP luminescence, 2 h; at 92.4 µM (top of the series); further: nearly all actives have a fitted effect of over 50% in size
Method in brief: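 Measured quantity is CellTiter-Glo luminescence from wild-type HCT-116 cells after compound incubation of 2hr at 37C, 5% CO2; reagent developed 30min at room temperature.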

[15] = qHTS assay to identify small molecule agonists of the sonic hedgehog signaling (Shh) pathway - cell viability counter screen (AID 1259366); settings: NIH/3T3 Gli1-Luc viability, CellTiter-Fluor, 24 h; at 92.4 µM (top of the series); further: nearly all actives have a fitted effect of over 50% in size
Method in brief: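 In quantitative high-throughput format, 3T3 Gli1-Luc cells were exposed to compounds for 24hr and multiplexed for viability using CellTiter-Fluor, incubated 1hr at 37C before the fluorescence read.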

[16] = qHTS assay to identify small molecule agonists of the estrogen related receptor signaling pathway with the pleiotropic PPARgamma coactivator (PGC) from Tox21 10K library (AID 1224842); settings: PGC/ERR reporter cell line, luciferase ONE-Glo, 18 h; at 92.4 µM (top of the series); further: nearly all actives have a fitted effect of over 15% in size
Method in brief: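 PGC/ERR reporter cell line, 2,000 cells per well, incubated 6 h at 37 C before 23 nL compound in DMSO was added. After 18 h at 37 C, One-Glo luminescence read following 30 min at room temperature.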

[17] = qHTS assay to identify small molecule agonists of H2AX - cell viability counter screen (AID 1224847; calls by dose curve; further: top concentration of the series differs between compounds; nearly all actives have a fitted effect of over 30% in size); settings: CHO-K1 viability, CellTiter-Glo luminescence, 3 h; at 154 µM (top of the series)
Method in brief: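 Compounds tested at 15 concentrations were incubated 3 hr at 37C with wild-type CHO-K1 cells; cellular ATP-based luminescence (CellTiter-Glo) indicated viability.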

[18] = qHTS assay to identify small molecule antagonists of the estrogen related receptor (ERR) signaling pathway from Tox21 library (AID 1224848); further: nearly all actives have a fitted effect of over 50% in size; further: potency means the concentration at half of the fitted maximal effect
Method in brief: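 Quantitative high-throughput format: ERR reporter cells (2,000/well) pre-incubated 6 h, treated 18 h at 37 C with compounds in DMSO alongside positive and negative controls, then read by ONE-Glo luminescence.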

[19] = qHTS assay to identify small molecule agonists of the estrogen related receptor (ERR) signaling pathway from Tox21 library (AID 1224849; calls by dose curve; further: nearly all actives have a fitted effect of over 15% in size); settings: ERR reporter cell line, ONE-Glo luciferase, 18 h; at 92.4 µM (top of the series)
Method in brief: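 Luminescence readout (ONE-Glo, 30 min RT) after 18 h compound exposure at 37 C of NTP-supplied ERR reporter cells; cells were plated 6 h before compound addition by pin tool.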

[20] = target: Estrogen receptor (Homo sapiens) (UniProt P03372); test: qHTS assay to identify small molecule antagonists of the estrogen receptor alpha (ER-alpha) signaling pathway using the BG1 cell line in the presence of 0.1 nM 17-beta-estradiol (AID 1259244); settings: VM7Luc4E2 (BG1) ERE-luciferase, antagonist mode, 0.1 nM E2, 22 h; at 92.4 µM (top of the series); further: nearly all actives have a fitted effect of over 50% in size
Method in brief: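 Luminescence after ONE-Glo (30 min, room temperature) measured ERE-luciferase activity in VM7Luc4E2 cells treated 22 h with compound and 0.1 nM final 17beta-estradiol as stimulator.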
On the % scale 0 is the no-effect control and ±100 the full control effect.

| Compound | activity change, negative = cytotoxicity [1] | activity change, negative = cytotoxicity [2] | activity change, negative = cytotoxic [3] | activity change, negative = cytotoxic [4] | activity change, negative = cytotoxicity [5] | viability change, negative = cytotoxic [6] | activity change, negative = cytotoxic [7] | activity change, negative = cytotoxic [8] | activity change, negative = cytotoxicity [9] | activity change, negative = cytotoxicity [10] | activity change, negative = cytotoxicity [11] | activity change, negative = cytotoxicity [12] | viability change, negative = cytotoxic [13] | activity change, negative = cytotoxicity [14] | viability change, negative = cytotoxic [15] | activation [16] | activity change, negative = cytotoxicity [17] | Potency [18] | activity change, positive = activation [19] | activity change, negative = inhibition [20] |
| --- | --- | --- | --- | --- | --- | --- | --- | --- | --- | --- | --- | --- | --- | --- | --- | --- | --- | --- | --- | --- |
| CCCCCCCC1CCC(=O)O1 (stereo not drawn) | inactive: 0.0907% | inactive: 1.11% | inactive: 3.6% | inactive: 4% | inactive: 0.773% | inactive: 0.793% | inactive: 3.36% | inactive: 3.13% | inactive: 0.366% | inactive: 2.43% | inactive: 2.71% | inactive: 2.66% | inactive: -0.521% | inactive: -1.4% | inactive: 0.498% | – | – | – | – | – |
| CC(=O)N(C)C | inactive: 13% and inactive: 1.51% | inactive: 2.07% and inactive: 2.17% | inactive: 4.46% and inactive: 8.94% | inactive: 1.14% and inactive: 0.517% | inactive: 5.45% and inactive: 9.82% | inactive: 0.603% and inactive: -0.9% | inactive: 0.276% and inactive: 1.65% | inactive: 2.65% and inactive: 2.49% | inactive: 3.5% and inactive: 9.46% | inactive: 1.79% and inactive: 0.809% | inactive: -2.6% and inactive: 1.5% | inactive: -0.602% and inactive: 1.85% | inactive: 0.829% and inactive: 0.228% | inactive: 0.208% and inactive: 0.178% | inactive: 0.841% and inactive: -0.481% | inactive: 3% and inactive: -3.07% | inactive: 1.6% and inactive: -0.329% | inactive | inactive: 2.89% | – |
| COc1ccc2ccccc2c1 | inactive: 1.32% | inactive: 0.183% | inactive: 4.99% | inactive: 0.806% | inactive: 1.59% | inactive: 2.2% | inactive: 0.288% | inactive: -0.297% | inactive: 1.49% | inactive: 0.0548% | inactive: 6.83% | inactive: -11.1% | inactive: 2.12% | inactive: -7.58% | inactive: 4.99% | – | inactive: -0.969% | – | – | – |
| O=C1Cc2ccccc2C1 | inactive: 0.141% | inactive: -3.02% | inactive: 17.5% | inactive: -9.45% | inactive: 22.5% | inactive: 4.33% | inactive: -8% | inactive: 3.46% | inactive: 19.8% | inactive: 21.8% | inactive: -3.08% | inactive: -4.43% | inactive: -6.97% | inactive: -1.24% | inactive: -10.5% | – | inactive: 0.554% | – | – | inactive: -17.3% |
| CS(=O)(=O)c1ccc([C@@H](CC2CCCC2)C(=O)Nc2cnccn2)cc1Cl | inactive: -12.2% | – | – | inactive: -20.9% | – | – | – | – | – | – | inactive: -14.1% | inactive: -29.7% | inactive: -14.6% | inactive: -4.97% | – | inactive: -21% | – | active: 30.6 µM | inactive: -55.4% | – |
| Nc1ccc(N)c([N+](=O)[O-])c1 | inactive: 11% | inactive: -11.6% | – | inactive: -5.8% | inactive: 7.67% | – | inactive: -10.7% | inactive: -8.99% | – | inactive: -0.816% | – | – | – | – | – | – | – | – | – | – |
